Assay results as given in patent US6995178B2, “Insecticidal anthranilamides” (E. I. du Pont de Nemours and Company, priority 2000, dated 2006).
Some results were stated once for a whole list of compounds, not compound by compound. Some ranges recur; such a range may be that of the whole group of compounds.

Tested on: Diamondback Moth (DBM)—Plutella Xylostella
Test: Diamondback Moth (DBM) plant feeding damage test on radish plants
Type: in vivo
Conditions: sprayed at 250 ppm, 1 mL per test unit, 12-14 day old radish plant pre-infested with 10-15 neonate larvae, held 6 days at 25° C. and 70% relative humidity, replicated three times

| Compound | Plant feeding damage visually assessed on a scale of 0-10 (excellent levels of plant protection: ratings of 0-1, 10% or less feeding damage) |
| --- | --- |
| CC(C)NC(=O)c1cccc(Cl)c1NC(=O)c1cc(C(F)(F)F)nn1-c1ccccn1 [Compound D37] | 0-1 |
| CC(C)NC(=O)c1cccc(Cl)c1NC(=O)c1cnn(-c2ccccc2)c1C(F)(F)F [Compound F6] | 0-1 |
| COCC(C)NC(=O)c1c(Cl)cccc1NC(=O)c1ccc(C(F)(F)F)cc1 (stereo not shown) [Compound 174] | 0-1 |
| Cc1cccc(C(=O)NC(C)C)c1NC(=O)c1ccc(C(F)(F)F)nc1Br [Compound B23] | 0-1 |
| Cc1cccc(C(=O)NC(C)C)c1NC(=O)c1ccc(F)c(C(F)(F)F)c1 [Compound 7] | 0-1 |
| Cc1ccccc1-n1nc(C(F)(F)F)cc1C(=O)Nc1c(C)cccc1C(=O)NC(C)C [Compound D75] | 0-1 |
| Cc1cccc(C(=O)NC(C)(C)C)c1NC(=O)c1ccc(OC(F)(F)F)cc1 [Compound 10] | 0-1 |
| C=CCNC(=O)c1cccc(C)c1NC(=O)c1ccc(OC(F)(F)F)cc1 [Compound 33] | 0-1 |
| CC(C)NC(=O)c1cccc(Cl)c1NC(=O)c1cc(C(F)(F)F)nn1-c1ccccc1C(F)(F)F [Compound D57] | 0-1 |
| Cc1cc(SC(F)F)ccc1C(=O)Nc1c(C)cccc1C(=O)NC(C)C [Compound 73] | 0-1 |
| Cc1ccccc1-c1nc(C(F)(F)F)ccc1C(=O)Nc1c(C)cccc1C(=O)NC(C)C [Compound B59] | 0-1 |
| Cc1cccc(C(=O)N(C)C(C)C)c1NC(=O)c1ccc(OC(F)(F)F)cc1 [Compound 24] | 0-1 |
| Cc1nc(C(F)(F)F)ccc1C(=O)Nc1c(Cl)ccc(Cl)c1C(=O)NC(C)C [Compound B72] | 0-1 |
| Cc1cccc(C(=O)NC(C)C)c1NC(=O)c1ccc(C(F)(F)F)nc1-n1ccc(C(F)(F)F)n1 [Compound B55] | 0-1 |
| CC(C)NC(=O)c1cccc(Cl)c1NC(=O)c1cc(C(F)(F)C(F)(F)F)nn1-c1ccccc1 [Compound D41] | 0-1 |
| Cc1cccc(NC(=O)c2cc(C(F)(F)F)nn2-c2nccs2)c1C(=O)NC(C)C [Compound D71] | 0-1 |
| CNC(=O)c1cccc(C)c1NC(=O)c1ccc(C(F)(F)F)cc1C [Compound 151] | 0-1 |
| Cc1cccc(C(=O)NC(C)C)c1NC(=O)c1cc(C)n(-c2ccc(C(F)(F)F)cc2)n1 [Compound E4] | 0-1 |
| COCC(C)NC(=O)c1cccc(C)c1NC(=O)c1cncs1 (stereo not shown) [Compound H2] | 0-1 |
| Cc1cc(OC(F)(F)F)ccc1C(=O)Nc1c(F)cccc1C(=O)NC(C)C [Compound 186] | 0-1 |
| CSCC(C)NC(=O)c1cccc(C(F)(F)F)c1NC(=O)c1cc(C(F)(F)F)nn1-c1ccccc1 (stereo not shown) [Compound D68] | 0-1 |
| Cc1cccc(C(=O)NC(C)C)c1NC(=O)c1ccc(C(F)(F)F)nc1-n1cnc(C#N)n1 [Compound B57] | 0-1 |
| Cc1cccc(C(=O)NC(C)C)c1NC(=O)c1cc(C(F)(F)F)ccc1C(=O)N1CCCC1 [Compound 251] | 0-1 |
| COCC(C)NC(=O)c1cc(C)cc(C)c1NC(=O)c1ccc(OC(F)(F)F)cc1 (stereo not shown) [Compound 103] | 0-1 |
| Cc1cc(C(=O)Nc2c(C)cccc2C(=O)NC(C)C)n(-c2ccccc2C(F)(F)F)n1 [Compound D11] | 0-1 |
| Cc1cccc(C(=O)NC(C)C)c1NC(=O)c1cnn(CC(F)(F)F)c1-c1ccccc1 [Compound F7] | 0-1 |
| CNC(=O)c1cccc(C)c1NC(=O)c1ccc(OC(F)(F)F)cc1 [Compound 62] | 0-1 |
| Cc1cccc(C(=O)NC(C)(C)C)c1NC(=O)c1ccc(F)c(C(F)(F)F)c1 [Compound 15] | 0-1 |

| Compound | Plant feeding damage visually assessed on a scale of 0-10 (excellent levels of plant protection: ratings of 0-1, 10% or less feeding damage) |
| --- | --- |
| CC(C)NC(=O)c1cccc(OC(F)F)c1NC(=O)c1ccc(C(F)(F)F)cc1 [Compound 97] | 0-1 |
| CC(C)NC(=O)c1cccc(Cl)c1NC(=O)c1ccc(C(F)(F)F)cc1-n1cccn1 [Compound 276] | 0-1 |
| Cc1cccc(C(=O)NC(C)C)c1NC(=O)c1cc(C(F)(F)F)cc(C(F)(F)F)c1 [Compound 68] | 0-1 |
| Cc1cccc(C(=O)NC(C)C)c1NC(=O)c1ccc(C(F)(F)F)cc1-n1ccc(C2CC2)n1 [Compound 245] | 0-1 |
| Cc1cccc(C(=O)NCC#N)c1NC(=O)c1ccc(C(F)(F)F)cc1 [Compound 166] | 0-1 |
| Cc1cccc(C(=O)NC(C)C)c1NC(=O)c1ccc(C(F)(F)F)cc1-n1ccc(C#N)n1 [Compound 220] | 0-1 |
| COCC(C)NC(=O)c1cccc(Cl)c1NC(=O)c1ccc(C(F)(F)F)cc1 (stereo not shown) [Compound 161] | 0-1 |
| CCCc1nc(OCC(F)(F)F)ccc1C(=O)Nc1c(C)cccc1C(=O)NC(C)C [Compound B68] | 0-1 |
| CC(C)NC(=O)c1ccccc1NC(=O)c1cccc(C(F)(F)F)c1 [Compound 60] | 0-1 |
| CNC(=O)c1cccc(C)c1NC(=O)c1cc(C(F)(F)F)nn1-c1ccccc1Cl [Compound D121] | 0-1 |
| Cc1ccccc1-n1nc(C(F)(F)F)cc1C(=O)Nc1c(Cl)cccc1C(=O)NC(C)C [Compound D76] | 0-1 |
| Cc1cc(C(F)(F)F)ccc1C(=O)Nc1cccc(C)c1C(=O)NC(C)C [Compound 53] | 0-1 |
| Cc1nc(C(F)(F)F)ncc1C(=O)Nc1c(Cl)cccc1C(=O)NC(C)C [Compound C2] | 0-1 |
| Cc1cc(C(=O)Nc2c(C)cccc2C(=O)NC(C)C)n(CC(F)(F)F)n1 [Compound D7] | 0-1 |
| Cc1cccc(C(=O)NC(C)C)c1NC(=O)c1nc(C(F)(F)F)nn1-c1ccccc1 [Compound J3] | 0-1 |
| Cc1cccc(C(=O)NC(C)C)c1NC(=O)c1ccc(C(F)(F)F)nc1 [Compound B10] | 0-1 |
| CCN(CC)C(=O)c1cccc(C)c1NC(=O)c1cc(C)nn1-c1ccccc1 [Compound D23] | 0-1 |
| C=CC(C)NC(=O)c1cccc(C)c1NC(=O)c1ccc(C(F)(F)F)nc1C (stereo not shown) [Compound B6] | 0-1 |
| Cc1cc(C(F)(F)F)ccc1C(=O)N(C)c1c(C)cccc1C(=O)NC(C)(C)C [Compound 84] | 0-1 |
| Cc1cccc(C(=O)NC(C)C)c1NC(=O)c1cc(C(F)(F)F)nn1-c1ccc(F)cc1F [Compound D94] | 0-1 |
| Cc1cc(C(=O)Nc2c(C)cccc2C(=O)NC(C)(C)C)n(-c2ccccc2)n1 [Compound D12] | 0-1 |
| Cc1cc(C)c(NC(=O)c2ccc(C(F)(F)F)cc2)c(C(=O)NC(C)C)c1 [Compound 38] | 0-1 |
| CCc1nc(C(F)(F)F)ccc1C(=O)Nc1c(C)cccc1C(=O)NC(C)C [Compound B38] | 0-1 |
| CCn1nc(C(F)(F)F)cc1C(=O)Nc1c(C)cccc1C(=O)NC(C)C [Compound D2] | 0-1 |
| COC(=O)C(C)NC(=O)c1cccc(C)c1NC(=O)c1ccc(C(F)(F)F)cc1 (stereo not shown) [Compound 183] | 0-1 |
| C#CCNC(=O)c1cccc(C)c1NC(=O)c1ccc(OC(F)(F)F)cc1 [Compound 31] | 0-1 |
| Cc1cccc(C(=O)NC(C)C)c1NC(=O)c1cc(C(F)(F)F)nn1-c1cccnc1 [Compound D91] | 0-1 |
